The source of these data is publication PMC5640428.

By UniProt entry, the sequences of proteins in these tests, tags left out. Residues count along the entry.
UniProt Q923T9: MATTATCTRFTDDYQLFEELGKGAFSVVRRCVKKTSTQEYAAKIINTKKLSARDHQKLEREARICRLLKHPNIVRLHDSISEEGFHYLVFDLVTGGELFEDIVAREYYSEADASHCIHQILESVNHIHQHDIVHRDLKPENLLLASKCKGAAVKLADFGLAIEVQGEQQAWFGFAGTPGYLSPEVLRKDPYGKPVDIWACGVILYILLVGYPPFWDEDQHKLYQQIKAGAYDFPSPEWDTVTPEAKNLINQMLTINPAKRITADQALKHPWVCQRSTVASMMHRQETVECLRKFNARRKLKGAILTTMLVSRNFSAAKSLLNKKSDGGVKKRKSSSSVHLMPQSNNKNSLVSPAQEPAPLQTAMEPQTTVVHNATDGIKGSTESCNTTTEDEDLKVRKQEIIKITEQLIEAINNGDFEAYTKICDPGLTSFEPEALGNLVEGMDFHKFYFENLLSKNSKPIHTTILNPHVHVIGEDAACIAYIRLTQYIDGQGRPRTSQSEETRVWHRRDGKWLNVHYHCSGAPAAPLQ
UniProt Q8K3J1, residues 35-212: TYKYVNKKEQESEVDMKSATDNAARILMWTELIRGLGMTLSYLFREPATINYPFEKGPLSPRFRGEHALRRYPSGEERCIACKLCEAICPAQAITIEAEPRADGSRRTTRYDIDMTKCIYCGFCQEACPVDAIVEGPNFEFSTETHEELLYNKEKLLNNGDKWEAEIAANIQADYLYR
UniProt Q6PHZ2: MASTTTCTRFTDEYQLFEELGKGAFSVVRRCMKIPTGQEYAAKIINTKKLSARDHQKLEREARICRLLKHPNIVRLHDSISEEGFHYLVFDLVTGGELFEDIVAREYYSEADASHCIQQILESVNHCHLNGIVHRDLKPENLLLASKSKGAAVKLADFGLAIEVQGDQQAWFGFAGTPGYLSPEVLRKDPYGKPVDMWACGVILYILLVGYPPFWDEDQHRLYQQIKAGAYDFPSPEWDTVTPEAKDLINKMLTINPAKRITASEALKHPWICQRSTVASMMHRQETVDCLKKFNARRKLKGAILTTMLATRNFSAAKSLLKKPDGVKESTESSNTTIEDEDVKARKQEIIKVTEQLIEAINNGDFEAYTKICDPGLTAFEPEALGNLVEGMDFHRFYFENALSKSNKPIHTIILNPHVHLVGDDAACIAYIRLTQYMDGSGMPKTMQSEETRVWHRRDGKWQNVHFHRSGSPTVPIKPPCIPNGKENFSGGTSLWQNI
UniProt Q501J6: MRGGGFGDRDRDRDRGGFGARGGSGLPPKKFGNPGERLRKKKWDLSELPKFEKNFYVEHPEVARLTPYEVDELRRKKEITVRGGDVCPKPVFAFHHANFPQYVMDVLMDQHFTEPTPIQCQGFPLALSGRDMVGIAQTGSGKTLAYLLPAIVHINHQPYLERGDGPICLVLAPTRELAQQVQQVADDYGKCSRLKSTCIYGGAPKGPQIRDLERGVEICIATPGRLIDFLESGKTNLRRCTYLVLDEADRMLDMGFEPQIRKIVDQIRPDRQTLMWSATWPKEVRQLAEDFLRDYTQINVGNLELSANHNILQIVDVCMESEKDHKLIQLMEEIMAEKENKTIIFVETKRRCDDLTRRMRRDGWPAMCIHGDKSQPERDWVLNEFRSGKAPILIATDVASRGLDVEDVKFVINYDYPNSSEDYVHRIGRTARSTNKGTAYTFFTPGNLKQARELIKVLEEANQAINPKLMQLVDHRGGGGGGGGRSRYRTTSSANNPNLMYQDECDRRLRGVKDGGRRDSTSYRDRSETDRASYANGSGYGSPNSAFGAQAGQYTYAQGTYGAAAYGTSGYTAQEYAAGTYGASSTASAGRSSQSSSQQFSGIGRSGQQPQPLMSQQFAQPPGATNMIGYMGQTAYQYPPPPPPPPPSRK
UniProt Q9D1K2: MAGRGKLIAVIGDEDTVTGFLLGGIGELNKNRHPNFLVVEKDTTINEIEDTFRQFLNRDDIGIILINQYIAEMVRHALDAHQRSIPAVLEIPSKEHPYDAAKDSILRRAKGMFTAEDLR
UniProt D3Z7P3, residues 55-674: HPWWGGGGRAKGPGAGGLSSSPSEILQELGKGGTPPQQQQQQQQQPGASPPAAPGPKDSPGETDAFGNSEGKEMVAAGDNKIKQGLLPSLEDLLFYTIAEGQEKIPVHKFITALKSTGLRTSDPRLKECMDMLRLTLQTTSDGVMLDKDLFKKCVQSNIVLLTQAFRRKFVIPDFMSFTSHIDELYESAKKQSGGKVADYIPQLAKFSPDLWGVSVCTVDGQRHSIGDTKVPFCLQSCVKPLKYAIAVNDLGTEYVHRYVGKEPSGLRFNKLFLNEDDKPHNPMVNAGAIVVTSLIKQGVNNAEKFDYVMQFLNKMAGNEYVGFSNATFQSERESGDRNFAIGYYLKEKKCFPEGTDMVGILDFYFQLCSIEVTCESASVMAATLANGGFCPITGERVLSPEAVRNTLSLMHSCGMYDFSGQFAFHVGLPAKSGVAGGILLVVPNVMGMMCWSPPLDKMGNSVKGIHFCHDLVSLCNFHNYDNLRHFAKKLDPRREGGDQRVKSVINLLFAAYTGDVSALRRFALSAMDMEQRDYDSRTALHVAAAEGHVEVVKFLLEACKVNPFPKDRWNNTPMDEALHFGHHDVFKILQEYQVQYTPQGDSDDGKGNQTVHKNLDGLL
UniProt P57780: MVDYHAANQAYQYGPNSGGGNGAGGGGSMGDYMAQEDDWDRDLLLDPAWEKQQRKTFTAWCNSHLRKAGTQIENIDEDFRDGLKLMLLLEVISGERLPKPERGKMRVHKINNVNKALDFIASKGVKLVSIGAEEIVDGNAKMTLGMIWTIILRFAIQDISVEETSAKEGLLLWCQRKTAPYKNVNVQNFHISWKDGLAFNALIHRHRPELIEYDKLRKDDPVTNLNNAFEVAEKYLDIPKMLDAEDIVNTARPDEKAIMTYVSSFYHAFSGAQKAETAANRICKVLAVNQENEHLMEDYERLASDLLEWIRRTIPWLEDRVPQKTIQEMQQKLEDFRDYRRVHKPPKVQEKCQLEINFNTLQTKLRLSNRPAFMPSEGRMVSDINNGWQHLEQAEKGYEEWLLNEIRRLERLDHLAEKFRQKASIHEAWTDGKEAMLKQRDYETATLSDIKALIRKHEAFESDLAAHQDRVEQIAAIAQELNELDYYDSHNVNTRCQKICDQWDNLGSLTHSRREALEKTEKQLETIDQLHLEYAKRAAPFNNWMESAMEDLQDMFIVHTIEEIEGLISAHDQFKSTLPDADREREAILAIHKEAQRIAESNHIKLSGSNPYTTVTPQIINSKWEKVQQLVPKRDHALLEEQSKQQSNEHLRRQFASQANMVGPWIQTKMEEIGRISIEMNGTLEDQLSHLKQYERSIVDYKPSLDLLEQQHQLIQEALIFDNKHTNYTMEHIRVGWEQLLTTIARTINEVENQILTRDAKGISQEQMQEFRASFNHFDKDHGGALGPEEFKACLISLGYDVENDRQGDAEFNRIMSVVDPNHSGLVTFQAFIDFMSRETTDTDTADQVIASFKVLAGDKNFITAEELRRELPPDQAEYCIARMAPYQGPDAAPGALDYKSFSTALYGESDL
UniProt Q9CQ75: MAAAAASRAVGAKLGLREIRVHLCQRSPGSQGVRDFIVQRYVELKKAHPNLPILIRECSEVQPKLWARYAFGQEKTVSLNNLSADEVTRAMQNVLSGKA
UniProt Q9D6F9: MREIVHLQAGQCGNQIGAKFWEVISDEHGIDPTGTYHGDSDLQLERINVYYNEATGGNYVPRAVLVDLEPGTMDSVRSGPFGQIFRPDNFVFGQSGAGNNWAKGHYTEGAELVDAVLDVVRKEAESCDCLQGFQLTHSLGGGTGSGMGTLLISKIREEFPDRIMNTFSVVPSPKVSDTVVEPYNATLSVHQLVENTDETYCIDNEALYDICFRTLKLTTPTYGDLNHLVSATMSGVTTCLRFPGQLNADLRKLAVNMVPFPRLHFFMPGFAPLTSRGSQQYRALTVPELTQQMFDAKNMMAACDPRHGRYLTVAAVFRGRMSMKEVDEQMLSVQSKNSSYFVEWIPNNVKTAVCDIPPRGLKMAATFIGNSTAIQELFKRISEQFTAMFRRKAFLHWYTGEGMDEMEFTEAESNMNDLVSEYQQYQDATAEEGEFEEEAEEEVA
UniProt P60469: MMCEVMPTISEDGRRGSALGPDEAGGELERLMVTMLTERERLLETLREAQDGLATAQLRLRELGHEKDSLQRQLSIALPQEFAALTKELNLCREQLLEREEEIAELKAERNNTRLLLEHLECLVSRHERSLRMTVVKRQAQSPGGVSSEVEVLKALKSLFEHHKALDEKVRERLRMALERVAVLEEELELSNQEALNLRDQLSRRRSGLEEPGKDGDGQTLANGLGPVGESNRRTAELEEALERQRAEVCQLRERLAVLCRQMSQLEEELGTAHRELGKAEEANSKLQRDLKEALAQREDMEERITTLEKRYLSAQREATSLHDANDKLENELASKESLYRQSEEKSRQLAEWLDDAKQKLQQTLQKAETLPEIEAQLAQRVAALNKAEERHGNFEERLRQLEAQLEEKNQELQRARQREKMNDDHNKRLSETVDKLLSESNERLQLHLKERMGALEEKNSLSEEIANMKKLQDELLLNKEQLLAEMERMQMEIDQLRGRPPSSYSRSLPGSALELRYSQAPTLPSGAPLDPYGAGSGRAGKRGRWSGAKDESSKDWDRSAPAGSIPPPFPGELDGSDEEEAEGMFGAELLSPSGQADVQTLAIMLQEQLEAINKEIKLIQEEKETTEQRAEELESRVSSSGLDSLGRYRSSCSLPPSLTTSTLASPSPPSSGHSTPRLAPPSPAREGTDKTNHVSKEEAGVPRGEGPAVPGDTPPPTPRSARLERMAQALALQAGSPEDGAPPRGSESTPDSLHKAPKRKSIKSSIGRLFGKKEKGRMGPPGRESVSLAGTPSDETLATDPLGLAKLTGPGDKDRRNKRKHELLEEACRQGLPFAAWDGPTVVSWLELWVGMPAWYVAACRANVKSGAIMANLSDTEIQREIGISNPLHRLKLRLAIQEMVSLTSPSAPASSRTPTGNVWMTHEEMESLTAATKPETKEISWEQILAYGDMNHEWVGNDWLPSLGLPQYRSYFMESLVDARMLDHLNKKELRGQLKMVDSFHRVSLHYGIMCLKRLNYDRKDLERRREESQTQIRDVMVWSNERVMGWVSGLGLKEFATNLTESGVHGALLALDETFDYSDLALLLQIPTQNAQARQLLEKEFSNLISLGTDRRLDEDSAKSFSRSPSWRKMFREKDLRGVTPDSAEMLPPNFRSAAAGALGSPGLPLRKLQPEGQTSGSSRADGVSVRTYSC
UniProt P46096: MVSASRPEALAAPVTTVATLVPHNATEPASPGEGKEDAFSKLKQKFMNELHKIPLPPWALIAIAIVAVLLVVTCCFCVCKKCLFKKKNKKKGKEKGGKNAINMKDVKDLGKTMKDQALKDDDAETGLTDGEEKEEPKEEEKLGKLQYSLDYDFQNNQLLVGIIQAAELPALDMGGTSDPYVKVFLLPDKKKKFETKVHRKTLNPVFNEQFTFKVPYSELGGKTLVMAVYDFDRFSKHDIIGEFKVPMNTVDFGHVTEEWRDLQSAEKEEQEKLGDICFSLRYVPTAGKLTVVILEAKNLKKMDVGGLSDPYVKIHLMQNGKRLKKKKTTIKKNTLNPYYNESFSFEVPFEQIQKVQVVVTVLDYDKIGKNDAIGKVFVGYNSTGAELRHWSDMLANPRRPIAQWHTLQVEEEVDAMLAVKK
UniProt Q8K596, residues 21-921: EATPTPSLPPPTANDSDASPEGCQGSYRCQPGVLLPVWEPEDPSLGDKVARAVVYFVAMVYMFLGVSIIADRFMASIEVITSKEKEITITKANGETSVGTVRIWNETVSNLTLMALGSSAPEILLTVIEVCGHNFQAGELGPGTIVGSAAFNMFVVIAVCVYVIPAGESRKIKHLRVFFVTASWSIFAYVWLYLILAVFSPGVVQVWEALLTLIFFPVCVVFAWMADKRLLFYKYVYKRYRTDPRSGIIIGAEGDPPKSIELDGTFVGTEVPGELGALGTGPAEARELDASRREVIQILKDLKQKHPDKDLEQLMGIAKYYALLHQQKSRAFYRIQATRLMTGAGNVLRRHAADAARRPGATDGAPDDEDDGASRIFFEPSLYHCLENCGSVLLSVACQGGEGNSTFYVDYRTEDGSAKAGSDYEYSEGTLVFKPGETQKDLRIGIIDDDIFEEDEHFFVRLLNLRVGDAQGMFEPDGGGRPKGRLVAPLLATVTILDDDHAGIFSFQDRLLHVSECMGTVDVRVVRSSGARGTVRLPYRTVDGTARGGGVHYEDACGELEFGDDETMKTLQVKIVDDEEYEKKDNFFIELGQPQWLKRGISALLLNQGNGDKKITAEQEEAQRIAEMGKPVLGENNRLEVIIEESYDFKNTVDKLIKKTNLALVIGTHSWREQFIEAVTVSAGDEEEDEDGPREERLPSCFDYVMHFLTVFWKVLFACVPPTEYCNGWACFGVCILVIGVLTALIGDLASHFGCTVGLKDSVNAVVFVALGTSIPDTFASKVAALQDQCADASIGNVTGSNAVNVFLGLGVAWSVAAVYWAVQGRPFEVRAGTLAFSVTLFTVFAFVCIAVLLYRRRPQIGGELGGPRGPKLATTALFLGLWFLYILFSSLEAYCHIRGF

This experiment has as its target T1, native KCC2 (K+-Cl- cotransporter KCC2) (mouse (endogenous in brain)) (UniProt Q91V14).
T1 sequence: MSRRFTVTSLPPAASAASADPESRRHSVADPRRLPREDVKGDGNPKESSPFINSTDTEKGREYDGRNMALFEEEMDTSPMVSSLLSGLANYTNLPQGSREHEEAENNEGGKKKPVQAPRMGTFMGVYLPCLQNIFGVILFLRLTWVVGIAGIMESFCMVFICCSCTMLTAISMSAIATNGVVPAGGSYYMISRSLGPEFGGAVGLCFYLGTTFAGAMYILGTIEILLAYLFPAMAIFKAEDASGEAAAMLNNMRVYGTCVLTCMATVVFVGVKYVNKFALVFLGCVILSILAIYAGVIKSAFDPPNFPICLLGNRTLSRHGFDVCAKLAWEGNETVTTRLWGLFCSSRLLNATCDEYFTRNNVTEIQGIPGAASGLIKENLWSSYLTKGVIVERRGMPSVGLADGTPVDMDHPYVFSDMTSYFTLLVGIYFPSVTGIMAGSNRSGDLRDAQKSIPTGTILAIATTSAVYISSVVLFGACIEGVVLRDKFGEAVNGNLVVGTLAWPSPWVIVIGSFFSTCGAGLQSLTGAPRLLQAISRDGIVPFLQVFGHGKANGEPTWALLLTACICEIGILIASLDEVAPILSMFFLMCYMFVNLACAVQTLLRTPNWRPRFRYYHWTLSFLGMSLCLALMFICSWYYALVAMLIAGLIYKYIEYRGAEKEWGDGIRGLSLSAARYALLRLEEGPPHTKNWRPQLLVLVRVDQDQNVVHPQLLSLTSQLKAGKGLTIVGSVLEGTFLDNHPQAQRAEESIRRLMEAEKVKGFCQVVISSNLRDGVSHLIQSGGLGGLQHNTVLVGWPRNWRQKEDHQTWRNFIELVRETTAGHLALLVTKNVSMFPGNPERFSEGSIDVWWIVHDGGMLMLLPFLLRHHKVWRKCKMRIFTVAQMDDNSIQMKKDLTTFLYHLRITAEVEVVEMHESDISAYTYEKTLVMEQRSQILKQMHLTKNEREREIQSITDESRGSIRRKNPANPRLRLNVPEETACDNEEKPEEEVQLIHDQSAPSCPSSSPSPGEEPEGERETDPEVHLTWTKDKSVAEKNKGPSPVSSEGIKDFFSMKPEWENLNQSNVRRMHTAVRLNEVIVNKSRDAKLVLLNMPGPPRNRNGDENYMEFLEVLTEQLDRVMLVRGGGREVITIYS
The experiment is described as follows: affinity purification with mass spectrometry; anti-KCC2 antibodies (C-terminal, N-terminal KCC2b, pS940) cross-linked with DMP to GammaBind IgG beads; C12E9-solubilised whole-brain membrane fractions of P5 and P50 mice; 4 hr, 4°C; parallel IgG/IgY controls.

No constants are given. Whether binding was seen depends on the method and setting. Binding seen in cells or lysates may run through a third protein. These calls come from enrichment with a bait or labelling near it, and not all partners need be listed.

As to PPIA (from UniProt P17742 1-164), the binding result was “binds”.

ATP2B2 (from UniProt Q9R0K7 1-1198): the binding entry is listed as “binds”.

As to SPTBN1 (from UniProt Q62261 1-2363), the binding result is on record as “binds”.

Consider ATP6V0A1 (from UniProt Q9Z1G4 1-839), for which the binding result is “binds”.

Regarding NDUFA9 (from UniProt Q9DC69 36-377), the binding entry was “binds”.

Take LGI3 (from UniProt Q8K406 31-548): the binding result is given as “binds”.

As for CCT5 (from UniProt P80316 1-541), the binding entry is listed as “binds”.

Turning to PPP1CA (from UniProt P62137 1-330), the binding result is on record as “binds”.

For the molecule TCP1 (from UniProt P11983 1-556), the binding entry is listed as “binds”.

On to ATP2A2 (from UniProt O55143 1-1044), for which the binding result was “binds”.

As for CAMK2G (from UniProt Q923T9 1-529), the binding entry is recorded as “binds”.

In the case of CSNK2A1 (from UniProt Q60737 1-391), the binding result is on record as “binds”.

Consider COX6C (from UniProt Q9CPQ1 1-76), for which the binding entry is “binds”.

Consider BSN (from UniProt O88737 1-3942), for which the binding entry is on record as “binds”.

As for NDUFS8 (from UniProt Q8K3J1 35-212), the binding entry was “binds”.

CRMP1 (from UniProt P97427 1-572): the binding result is “binds”.

Take CAMK2D (from UniProt Q6PHZ2 1-499): the binding result is given as “binds”.

NEDD4L (from UniProt Q8CFI0 1-1004): the binding entry is reported as “binds”.

In the case of ACOX3 (from UniProt Q9EPL9 1-700), the binding result is recorded as “binds”.

USP24 (from UniProt B1AY13 1-2617): the binding entry is on record as “binds”.

On to PPP2CA (from UniProt P63330 1-309), for which the binding result is “binds”.

With VCP (from UniProt Q01853 1-806), the binding entry is given as “binds”.

For YWHAE (from UniProt P62259 1-255), the binding result is listed as “binds”.

As for FASN (from UniProt P19096 1-2504), the binding result is on record as “binds”.

In the case of “creatine kinase B (from UniProt Q04447 1-381)”, the binding entry was “binds”.

Consider DDX17 (from UniProt Q501J6 1-650), for which the binding result is listed as “binds”.

DDX3X (from UniProt Q62167 1-662): the binding result is “binds”.

SLC1A2 (from UniProt P43006 1-572): the binding result is recorded as “binds”.

Take DYNC1LI1 (from UniProt Q8R1Q8 1-523): the binding result is “binds”.

Regarding CKMT1 (from UniProt P30275 40-418), the binding entry was “binds”.

With ATP6V1F (from UniProt Q9D1K2 1-119), the binding entry was “binds”.

Regarding SNAP25 (from UniProt P60879 1-206), the binding result is on record as “binds”.

For the molecule TUBB4B (from UniProt P68372 1-445), the binding result is listed as “binds”.

As for GLS (from UniProt D3Z7P3 55-674), the binding entry was “binds”.

As for RAB2A (from UniProt P53994 1-212), the binding entry was “binds”.

Consider NDUFS1 (from UniProt Q91VD9 24-727), for which the binding entry was “binds”.

Take ACTN4 (from UniProt P57780 1-912): the binding entry is given as “binds”.

WWP1 (from UniProt Q8BZZ3 1-918): the binding result is reported as “binds”.

For the molecule NDUFA2 (from UniProt Q9CQ75 1-99), the binding result is “binds”.

For the molecule ATP5H (from UniProt Q9DCX2 1-161), the binding entry is reported as “binds”.

With C1QB (from UniProt P14106 26-253), the binding entry is given as “binds”.

With DCTN2 (from UniProt Q99KJ8 1-402), the binding result is listed as “binds”.

For the molecule HMCN2 (from UniProt A2AJ76 20-5100), the binding result is “binds”.

With SNRPA (from UniProt Q62189 1-287), the binding entry is on record as “binds”.

For CCT6A (from UniProt P80317 1-531), the binding entry is “binds”.

DPYSL3 (from UniProt Q62188 1-570): the binding entry was “binds”.

For STX1B (from UniProt P61264 1-288), the binding entry was “binds”.

Turning to DNAJA3 (mouse (endogenous in brain)), the binding result was “binds”.

Take “PACSIN1 (PKC and CSNK2A1 substrate in neurons) (from UniProt Q61644 1-441)”: the binding entry is on record as “binds”.

Take TUBB4A (from UniProt Q9D6F9 1-444): the binding result is “binds”.

Take PPFIA3 (from UniProt P60469 1-1194): the binding entry is reported as “binds”.

With DHX9 (from UniProt O70133 1-1380), the binding result is “binds”.

KIF21B (from UniProt Q9QXL1 1-1668): the binding result was “binds”.

EWSR1 (from UniProt Q61545 1-655): the binding result is given as “binds”.

As to cofilin1 (from UniProt P18760 1-166), the binding result was “binds”.

Take YWHAZ (from UniProt P63101 1-245): the binding result is given as “binds”.

As to GNB1 (from UniProt P62874 1-340), the binding result is reported as “binds”.

Turning to PKM (from UniProt P52480 1-531), the binding result is “binds”.

With SYT1 (from UniProt P46096 1-421), the binding result is listed as “binds”.

Consider “sodium/potassium ATPase subunit 2 (from UniProt Q6PIE5 1-1020)”, for which the binding entry is “binds”.

In the case of NUDT21 (from UniProt Q9CQF3 1-227), the binding result is recorded as “binds”.

As for SLC8A2 (from UniProt Q8K596 21-921), the binding result was “binds”.

B1: STMN2 (protein, UniProt P55821 1-179)
chain: MAKTAMAYKEKMKELSMLSLICSCFYPEPRNINIYTYDDMEVKQINKRASGQAFELILKPPSPISEAPRTLASPKKKDLSLEEIQKKLEAAEERRKSQEAQVLKQLAEKREHEREVLQKALEENNNFSKMAEEKLILKMEQIKENREANLAAIIERLQEKERHAAEVRRNKELQVELSG
On to B1, for which the binding entry is reported as “binds”.
